What all share (experiment): two-hybrid; pGBD-C1 vectors with CA/CN Rab mutants (ΔCys) or Arl8b(Q75L)ΔN and pAct2 vectors with Kif tail domains or SKIP RUN domain; yeast strain pJ69-4A; selection medium SC-AHLW, 30°C, 1 week
The target of assay [1] is T1, SKIP(Δ177–186)-RUN, pAct2 (human) (UniProt Q8IWE5).
T1 sequence: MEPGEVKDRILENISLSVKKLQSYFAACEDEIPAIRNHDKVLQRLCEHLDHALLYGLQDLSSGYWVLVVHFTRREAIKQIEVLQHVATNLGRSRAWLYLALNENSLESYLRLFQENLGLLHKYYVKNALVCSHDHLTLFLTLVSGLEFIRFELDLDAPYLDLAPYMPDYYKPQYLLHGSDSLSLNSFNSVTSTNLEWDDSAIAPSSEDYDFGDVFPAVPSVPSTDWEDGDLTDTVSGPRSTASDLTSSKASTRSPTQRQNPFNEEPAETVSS

Amino acid sequences for entries named in this document (tags omitted). A change or cut given only in a name is not applied to a line headed by its entry.
UniProt P62821: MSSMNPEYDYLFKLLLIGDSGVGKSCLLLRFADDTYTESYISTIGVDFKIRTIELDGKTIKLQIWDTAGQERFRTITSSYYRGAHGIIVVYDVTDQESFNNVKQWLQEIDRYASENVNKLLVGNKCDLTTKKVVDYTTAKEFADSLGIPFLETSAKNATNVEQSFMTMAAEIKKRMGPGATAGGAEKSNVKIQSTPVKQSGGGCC

The target of assay [2] is T2, SKIP-RUN (amino acid residues 1–282), pAct2 (human) (UniProt Q8IWE5).
T2 sequence: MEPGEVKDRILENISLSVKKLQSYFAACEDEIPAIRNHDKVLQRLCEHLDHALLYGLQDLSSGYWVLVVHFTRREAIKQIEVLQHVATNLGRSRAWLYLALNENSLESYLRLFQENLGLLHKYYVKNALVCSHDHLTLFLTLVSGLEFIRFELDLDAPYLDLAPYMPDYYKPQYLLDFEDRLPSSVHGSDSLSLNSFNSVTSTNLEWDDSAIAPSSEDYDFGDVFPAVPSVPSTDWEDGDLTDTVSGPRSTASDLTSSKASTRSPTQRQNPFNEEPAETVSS

The target of assay [3] is constitutively active (CA) Rab1A mutant, Rab1A(Q70L)ΔCys (mouse) (UniProt P62821).

These are yes or no findings as the source states them, for the method shown. For some of these results: Binding can be weak; no strength is given.

Take “constitutively active (CA) Rab1A mutant, Rab1A(Q70L)ΔCys (from UniProt P62821)”: the binding entry in assay [1] is listed as “no binding”; in assay [2], “binds”.

Regarding “constitutively negative (CN) Rab1A mutant, ΔCys (from UniProt P62821)”, the binding entry in assay [2] was “no binding”.

B1: Rusc2 RUN domain (domain or fragment, UniProt Q80U22 1026-1170)
chain: NVGHLVLKYLCPAVQAVLEDGLKAFVLDVIIGQRKNMPWSVVEASTQLGPSTKVLHGLYNKVSQFPELTSHTMRFNAFILGLLNIRSLEFWFNHLYNHEDIIQTHYQPWGFLRAAHTVCPGLFEELLLLLQPLALLPFSLDLLFQ
As to B1, the binding result in assay [3] is “binds”.

The record behind these values is publication PMC4316160.
